{
  "source": "paper PMC5604497",
  "binders": {"B1": {"name": "ArcA-Snap (chromosomally-encoded fusion protein of ArcA with a Snap-Tag) (protein, UniProt P0A9Q1 1-238)", "chain": "MQTPHILIVEDELVTRNTLKSIFEAEGYDVFEATDGAEMHQILSEYDINLVIMDINLPGKNGLLLARELREQANVALMFLTGRDNEVDKILGLEIGADDYITKPFNPRELTIRARNLLSRTMNLGTVSEERRSVESYKFNGWELDINSRSLIGPDGEQYKLPRSEFRAMLHFCENPGKIQSRAELLKKMTGRELKPHDRTVDVTIRRIRKHFESTPDTPEIIATIHGEGYRFCGDLED"}, "B2": {"name": "T25-CpxR (response regulator CpxR N-terminally fused to the T25 fragment of Bordetella pertussis adenylate cyclase) (protein, UniProt P0AE88 1-232)", "chain": "MNKILLVDDDRELTSLLKELLEMEGFNVIVAHDGEQALDLLDDSIDLLLLDVMMPKKNGIDTLKALRQTHQTPVIMLTARGSELDRVLGLELGADDYLPKPFNDRELVARIRAILRRSHWSEQQQNNDNGSPTLEVDALVLNPGRQEASFDGQTLELTGTEFTLLYLLAQHLGQVVSREHLSQEVLGKRLTPFDRAIDMHISNLRRKLPDRKDGHPWFKTLRGRGYLMVSAS"}},
  "key": {"[1]": {"molecular_target": "T1, CpxA-Strep (plasmid-encoded C-terminal fusion of CpxA with Strep-tag) (E. coli (strain MG1655)) (UniProt P0AE82)", "T1 sequence": "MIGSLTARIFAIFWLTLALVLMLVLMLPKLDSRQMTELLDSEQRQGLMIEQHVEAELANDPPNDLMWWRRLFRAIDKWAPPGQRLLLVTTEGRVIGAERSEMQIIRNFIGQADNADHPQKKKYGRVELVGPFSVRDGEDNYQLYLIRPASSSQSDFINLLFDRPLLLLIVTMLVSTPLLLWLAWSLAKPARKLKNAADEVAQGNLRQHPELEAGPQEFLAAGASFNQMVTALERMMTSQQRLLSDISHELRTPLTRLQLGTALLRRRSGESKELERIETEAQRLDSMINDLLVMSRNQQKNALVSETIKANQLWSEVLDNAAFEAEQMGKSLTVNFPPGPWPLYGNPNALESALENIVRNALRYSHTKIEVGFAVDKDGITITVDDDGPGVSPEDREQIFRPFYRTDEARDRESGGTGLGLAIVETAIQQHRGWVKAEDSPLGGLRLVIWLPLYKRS", "experiment": "cross-linking + pull-down; Membrane-SPINE as a2 but cells not treated with gentamicin; 0.6% formaldehyde added"}, "[2]": {"molecular_target": "T1, CpxA-Strep (plasmid-encoded C-terminal fusion of CpxA with Strep-tag) (E. coli (strain MG1655))", "experiment": "pull-down; Membrane-SPINE as a2 with 5 μg ml^−1 gentamicin but without the cross-linker formaldehyde; CpxA-Strep purified on Strep-tactin column; immunoblot"}, "[3]": {"molecular_target": "T1, CpxA-Strep (plasmid-encoded C-terminal fusion of CpxA with Strep-tag) (E. coli (strain MG1655))", "experiment": "cross-linking + pull-down; Membrane-SPINE: cells treated with 5 μg ml^−1 gentamicin for 40 min and 0.6% formaldehyde for the last 20 min; membranes solubilised with 2% DDM; CpxA-Strep purified on Strep-tactin column; cross-links removed by boiling; immunoblot for Strep and Snap tags"}, "[4]": {"molecular_target": "T2, ArcB-T18 (sensor kinase ArcB C-terminally fused to the T18 fragment of Bordetella pertussis adenylate cyclase) (E. coli (strain MG1655)) (UniProt P0AEC3)", "T2 sequence": "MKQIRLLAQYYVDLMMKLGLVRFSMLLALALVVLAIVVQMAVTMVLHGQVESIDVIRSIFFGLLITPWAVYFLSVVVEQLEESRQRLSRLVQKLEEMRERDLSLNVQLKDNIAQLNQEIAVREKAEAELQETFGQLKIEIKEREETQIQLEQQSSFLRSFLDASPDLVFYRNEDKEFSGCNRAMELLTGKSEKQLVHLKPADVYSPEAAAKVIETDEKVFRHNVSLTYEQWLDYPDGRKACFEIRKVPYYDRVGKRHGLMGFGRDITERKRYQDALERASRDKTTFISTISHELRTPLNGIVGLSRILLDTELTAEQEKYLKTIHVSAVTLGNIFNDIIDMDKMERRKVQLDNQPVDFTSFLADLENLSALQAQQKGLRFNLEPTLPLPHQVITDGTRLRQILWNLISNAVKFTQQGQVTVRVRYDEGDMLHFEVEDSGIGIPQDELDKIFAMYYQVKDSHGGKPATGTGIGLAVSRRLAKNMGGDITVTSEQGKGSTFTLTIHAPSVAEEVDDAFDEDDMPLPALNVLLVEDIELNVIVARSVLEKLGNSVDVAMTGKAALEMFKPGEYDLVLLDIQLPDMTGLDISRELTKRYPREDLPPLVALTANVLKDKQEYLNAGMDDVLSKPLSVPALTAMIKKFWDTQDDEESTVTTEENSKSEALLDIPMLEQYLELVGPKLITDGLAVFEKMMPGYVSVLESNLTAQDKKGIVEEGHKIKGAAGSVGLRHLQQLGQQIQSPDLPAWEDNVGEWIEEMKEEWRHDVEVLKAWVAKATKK", "experiment": "two-hybrid; bacterial two-hybrid (BACTH), T18 and T25 fusions co-overexpressed in adenylate-cyclase-deficient E. coli BTH-101, LB pH 7, aerobic, OD600 ~0.6; ß-galactosidase activity (ONPG) in Miller units, three biological replicates; background with empty vectors about 400 MU"}},
  "note": "These are yes or no findings as the source states them, for the method shown. For some of these results: Binding seen in cells or lysates may run through a third protein. Some entries that bind do so weakly or less than the wild type. Sequences can lack the tags named with a protein.",
  "data": [
    {"binder": "B1", "values": [
      {"measurement": "binding", "setting": "[1]", "value": "binds weakly"},
      {"measurement": "binding", "setting": "[2]", "value": "binds weakly"},
      {"measurement": "binding", "setting": "[3]", "value": "binds"}
    ]},
    {"binder": "B2", "values": [
      {"measurement": "binding", "setting": "[4]", "value": "no binding"}
    ]}
  ]
}
